The values below come from the supplement of paper PMC12819154, “High-throughput peptide-centric local stability assay extends protein–ligand identification to membrane proteins, tissues and bacteria” (Nature Structural & Molecular Biology, 2025).

Protein sequences, listed by entry. Tags and fused reporters are not part of them. Lines headed by an entry give the natural chain unless they say otherwise; changes in a name come on top.
UniProt P54098: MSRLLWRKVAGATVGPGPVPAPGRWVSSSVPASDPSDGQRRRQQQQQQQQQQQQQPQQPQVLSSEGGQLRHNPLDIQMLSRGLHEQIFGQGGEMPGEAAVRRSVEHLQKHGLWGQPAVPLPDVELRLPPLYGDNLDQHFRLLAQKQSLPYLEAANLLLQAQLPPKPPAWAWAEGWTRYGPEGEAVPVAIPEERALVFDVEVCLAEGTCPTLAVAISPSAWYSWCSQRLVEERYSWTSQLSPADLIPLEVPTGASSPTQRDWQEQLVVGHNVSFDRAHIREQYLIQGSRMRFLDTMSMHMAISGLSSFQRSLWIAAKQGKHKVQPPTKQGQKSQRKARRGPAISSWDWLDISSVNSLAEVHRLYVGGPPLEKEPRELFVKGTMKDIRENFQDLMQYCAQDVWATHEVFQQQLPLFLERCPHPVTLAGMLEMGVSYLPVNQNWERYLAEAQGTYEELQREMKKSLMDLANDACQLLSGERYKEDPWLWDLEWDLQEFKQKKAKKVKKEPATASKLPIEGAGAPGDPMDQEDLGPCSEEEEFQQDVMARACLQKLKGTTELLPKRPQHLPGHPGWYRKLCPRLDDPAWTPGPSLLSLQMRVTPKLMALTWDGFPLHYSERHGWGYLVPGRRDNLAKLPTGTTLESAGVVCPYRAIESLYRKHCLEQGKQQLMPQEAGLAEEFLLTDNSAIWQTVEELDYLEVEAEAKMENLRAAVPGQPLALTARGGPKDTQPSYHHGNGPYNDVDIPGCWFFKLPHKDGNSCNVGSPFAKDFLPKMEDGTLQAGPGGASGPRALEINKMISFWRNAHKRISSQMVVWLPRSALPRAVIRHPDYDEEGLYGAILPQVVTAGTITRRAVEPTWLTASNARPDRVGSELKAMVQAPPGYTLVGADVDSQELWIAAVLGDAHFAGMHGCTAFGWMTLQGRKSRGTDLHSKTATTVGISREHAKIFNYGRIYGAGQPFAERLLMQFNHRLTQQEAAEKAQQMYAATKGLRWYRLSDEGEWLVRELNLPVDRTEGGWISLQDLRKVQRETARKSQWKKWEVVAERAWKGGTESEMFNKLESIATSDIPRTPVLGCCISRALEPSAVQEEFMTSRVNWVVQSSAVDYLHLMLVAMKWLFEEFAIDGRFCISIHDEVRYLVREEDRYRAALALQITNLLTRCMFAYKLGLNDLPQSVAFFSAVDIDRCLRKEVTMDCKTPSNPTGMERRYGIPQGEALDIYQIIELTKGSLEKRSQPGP
UniProt P49427: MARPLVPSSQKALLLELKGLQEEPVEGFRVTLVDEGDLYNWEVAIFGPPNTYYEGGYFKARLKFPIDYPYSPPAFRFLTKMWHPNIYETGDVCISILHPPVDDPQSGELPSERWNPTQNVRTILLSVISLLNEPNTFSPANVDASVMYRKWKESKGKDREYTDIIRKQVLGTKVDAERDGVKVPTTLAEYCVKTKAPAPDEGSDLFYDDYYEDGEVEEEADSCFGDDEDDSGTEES
UniProt P49795: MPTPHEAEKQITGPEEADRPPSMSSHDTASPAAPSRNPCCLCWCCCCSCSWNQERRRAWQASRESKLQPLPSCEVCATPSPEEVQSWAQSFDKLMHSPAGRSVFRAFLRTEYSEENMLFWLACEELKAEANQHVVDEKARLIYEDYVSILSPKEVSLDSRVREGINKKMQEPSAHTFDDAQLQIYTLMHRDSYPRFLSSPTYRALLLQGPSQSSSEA
UniProt P52756, whole entry: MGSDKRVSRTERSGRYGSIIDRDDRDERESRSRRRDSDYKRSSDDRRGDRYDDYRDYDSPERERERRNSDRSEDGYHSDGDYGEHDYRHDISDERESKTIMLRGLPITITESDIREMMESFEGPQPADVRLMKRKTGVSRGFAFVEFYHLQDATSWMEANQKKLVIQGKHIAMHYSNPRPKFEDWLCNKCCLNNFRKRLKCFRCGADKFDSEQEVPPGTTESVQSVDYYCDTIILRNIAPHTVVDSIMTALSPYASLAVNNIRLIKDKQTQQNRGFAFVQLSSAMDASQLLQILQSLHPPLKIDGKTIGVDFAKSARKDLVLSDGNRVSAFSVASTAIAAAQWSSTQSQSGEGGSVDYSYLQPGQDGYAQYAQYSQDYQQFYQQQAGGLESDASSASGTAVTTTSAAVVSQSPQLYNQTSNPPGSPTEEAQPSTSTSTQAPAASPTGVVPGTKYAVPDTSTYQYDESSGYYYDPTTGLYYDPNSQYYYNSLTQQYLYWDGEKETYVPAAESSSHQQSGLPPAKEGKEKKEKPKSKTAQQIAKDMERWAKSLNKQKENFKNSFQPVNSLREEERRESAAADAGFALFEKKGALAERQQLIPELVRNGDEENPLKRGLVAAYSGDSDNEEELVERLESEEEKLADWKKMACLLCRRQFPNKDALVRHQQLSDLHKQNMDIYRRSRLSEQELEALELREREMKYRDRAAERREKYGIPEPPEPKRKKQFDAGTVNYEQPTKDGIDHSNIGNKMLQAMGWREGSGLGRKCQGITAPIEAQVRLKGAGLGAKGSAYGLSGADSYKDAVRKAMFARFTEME
UniProt P50213: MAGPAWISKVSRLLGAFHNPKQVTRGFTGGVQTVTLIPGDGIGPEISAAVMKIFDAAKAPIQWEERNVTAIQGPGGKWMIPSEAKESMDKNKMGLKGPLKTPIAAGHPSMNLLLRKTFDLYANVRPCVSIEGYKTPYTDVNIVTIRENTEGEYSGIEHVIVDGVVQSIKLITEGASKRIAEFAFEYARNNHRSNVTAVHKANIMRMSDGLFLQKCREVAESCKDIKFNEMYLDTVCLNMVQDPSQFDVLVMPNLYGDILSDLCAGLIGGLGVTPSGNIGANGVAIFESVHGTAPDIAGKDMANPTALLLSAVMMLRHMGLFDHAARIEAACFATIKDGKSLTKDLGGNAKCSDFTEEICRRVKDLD
UniProt P52701: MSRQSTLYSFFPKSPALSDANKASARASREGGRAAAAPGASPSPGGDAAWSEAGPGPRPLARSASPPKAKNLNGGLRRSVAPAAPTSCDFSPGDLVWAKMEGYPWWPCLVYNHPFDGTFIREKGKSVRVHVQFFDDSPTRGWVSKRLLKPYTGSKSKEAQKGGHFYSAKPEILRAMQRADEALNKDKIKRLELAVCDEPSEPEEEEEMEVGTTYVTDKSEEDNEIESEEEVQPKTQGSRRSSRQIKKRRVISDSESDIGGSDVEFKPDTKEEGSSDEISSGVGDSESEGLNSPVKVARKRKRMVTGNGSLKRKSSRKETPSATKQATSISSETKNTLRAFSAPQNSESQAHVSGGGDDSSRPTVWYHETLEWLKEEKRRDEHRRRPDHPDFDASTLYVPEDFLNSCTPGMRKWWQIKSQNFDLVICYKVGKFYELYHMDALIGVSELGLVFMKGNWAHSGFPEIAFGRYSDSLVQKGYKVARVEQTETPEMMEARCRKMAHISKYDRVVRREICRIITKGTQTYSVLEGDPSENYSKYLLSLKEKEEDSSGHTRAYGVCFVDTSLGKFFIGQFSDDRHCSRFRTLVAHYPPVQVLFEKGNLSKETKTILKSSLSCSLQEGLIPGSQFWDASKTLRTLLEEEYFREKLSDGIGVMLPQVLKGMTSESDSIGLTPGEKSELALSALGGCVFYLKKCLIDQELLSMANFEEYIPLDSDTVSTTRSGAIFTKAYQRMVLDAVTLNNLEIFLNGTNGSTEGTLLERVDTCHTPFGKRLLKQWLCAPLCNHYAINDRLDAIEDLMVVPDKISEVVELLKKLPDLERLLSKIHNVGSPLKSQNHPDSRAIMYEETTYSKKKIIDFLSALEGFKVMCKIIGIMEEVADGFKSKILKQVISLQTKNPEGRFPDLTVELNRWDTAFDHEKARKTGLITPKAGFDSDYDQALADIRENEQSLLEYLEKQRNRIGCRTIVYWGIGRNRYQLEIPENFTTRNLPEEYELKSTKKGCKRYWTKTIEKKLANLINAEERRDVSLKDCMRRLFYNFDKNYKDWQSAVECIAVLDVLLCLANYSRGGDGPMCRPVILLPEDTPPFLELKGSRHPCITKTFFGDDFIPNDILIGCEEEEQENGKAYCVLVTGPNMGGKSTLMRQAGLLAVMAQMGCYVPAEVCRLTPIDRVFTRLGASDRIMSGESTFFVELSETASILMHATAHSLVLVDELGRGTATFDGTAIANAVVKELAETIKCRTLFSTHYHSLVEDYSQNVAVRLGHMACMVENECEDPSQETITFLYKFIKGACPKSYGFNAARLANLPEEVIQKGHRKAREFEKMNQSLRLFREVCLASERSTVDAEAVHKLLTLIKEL
UniProt P49407: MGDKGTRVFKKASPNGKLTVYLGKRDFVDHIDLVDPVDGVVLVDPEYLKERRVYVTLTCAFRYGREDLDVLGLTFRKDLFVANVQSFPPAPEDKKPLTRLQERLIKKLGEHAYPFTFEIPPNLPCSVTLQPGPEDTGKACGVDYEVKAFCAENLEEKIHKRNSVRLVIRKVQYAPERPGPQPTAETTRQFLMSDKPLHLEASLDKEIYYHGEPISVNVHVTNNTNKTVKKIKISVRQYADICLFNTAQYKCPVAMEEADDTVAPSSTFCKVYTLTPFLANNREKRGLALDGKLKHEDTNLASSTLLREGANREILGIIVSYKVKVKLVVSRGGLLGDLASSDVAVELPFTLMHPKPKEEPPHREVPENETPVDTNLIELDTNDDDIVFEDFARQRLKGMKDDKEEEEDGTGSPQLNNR
UniProt P51784: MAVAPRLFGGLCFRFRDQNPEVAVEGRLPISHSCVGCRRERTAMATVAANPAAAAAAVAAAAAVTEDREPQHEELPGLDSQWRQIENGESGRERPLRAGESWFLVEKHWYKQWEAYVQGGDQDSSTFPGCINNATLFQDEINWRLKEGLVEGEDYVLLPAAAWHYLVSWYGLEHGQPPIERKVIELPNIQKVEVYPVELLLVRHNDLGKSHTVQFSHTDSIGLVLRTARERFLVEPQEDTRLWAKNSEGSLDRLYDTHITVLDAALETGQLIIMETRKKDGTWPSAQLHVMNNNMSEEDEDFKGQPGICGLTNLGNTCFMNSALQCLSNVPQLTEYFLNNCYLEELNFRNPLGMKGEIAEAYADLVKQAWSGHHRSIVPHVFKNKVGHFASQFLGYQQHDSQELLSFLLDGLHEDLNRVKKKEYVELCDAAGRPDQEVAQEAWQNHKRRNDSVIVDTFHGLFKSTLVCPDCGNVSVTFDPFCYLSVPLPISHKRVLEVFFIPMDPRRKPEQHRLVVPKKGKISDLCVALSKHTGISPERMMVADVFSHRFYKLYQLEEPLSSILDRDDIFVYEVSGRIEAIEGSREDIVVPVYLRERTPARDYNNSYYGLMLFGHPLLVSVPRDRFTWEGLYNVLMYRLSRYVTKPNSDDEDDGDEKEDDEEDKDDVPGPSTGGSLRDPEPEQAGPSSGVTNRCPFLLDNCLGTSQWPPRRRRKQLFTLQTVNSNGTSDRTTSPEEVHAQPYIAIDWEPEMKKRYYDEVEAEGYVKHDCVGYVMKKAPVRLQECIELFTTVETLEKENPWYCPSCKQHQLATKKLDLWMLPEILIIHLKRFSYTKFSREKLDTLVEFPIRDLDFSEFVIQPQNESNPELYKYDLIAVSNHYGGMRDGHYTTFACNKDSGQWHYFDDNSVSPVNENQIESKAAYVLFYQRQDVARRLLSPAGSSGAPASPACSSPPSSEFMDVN
UniProt P49591: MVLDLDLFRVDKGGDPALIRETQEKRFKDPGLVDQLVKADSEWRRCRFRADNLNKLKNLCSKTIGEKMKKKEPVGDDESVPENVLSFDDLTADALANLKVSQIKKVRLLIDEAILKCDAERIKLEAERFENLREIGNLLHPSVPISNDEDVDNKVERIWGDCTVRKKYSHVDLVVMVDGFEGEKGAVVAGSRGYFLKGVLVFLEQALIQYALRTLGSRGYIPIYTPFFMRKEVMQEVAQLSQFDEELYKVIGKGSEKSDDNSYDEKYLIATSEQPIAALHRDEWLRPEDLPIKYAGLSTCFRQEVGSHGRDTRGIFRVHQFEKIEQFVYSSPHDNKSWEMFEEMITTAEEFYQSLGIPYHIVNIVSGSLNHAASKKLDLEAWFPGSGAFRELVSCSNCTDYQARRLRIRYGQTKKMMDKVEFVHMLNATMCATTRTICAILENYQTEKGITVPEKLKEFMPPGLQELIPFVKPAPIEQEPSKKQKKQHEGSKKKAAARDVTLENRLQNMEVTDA
UniProt P52895: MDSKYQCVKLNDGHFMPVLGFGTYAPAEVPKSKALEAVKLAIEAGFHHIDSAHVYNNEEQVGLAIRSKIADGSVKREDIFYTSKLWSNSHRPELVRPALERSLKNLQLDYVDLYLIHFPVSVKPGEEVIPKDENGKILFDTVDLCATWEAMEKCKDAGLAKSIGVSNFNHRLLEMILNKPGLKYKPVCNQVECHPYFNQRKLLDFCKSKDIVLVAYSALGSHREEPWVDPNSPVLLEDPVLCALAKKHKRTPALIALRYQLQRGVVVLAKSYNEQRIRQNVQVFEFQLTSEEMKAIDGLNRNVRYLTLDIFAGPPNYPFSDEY

This is one part of the list. Most entries show no effect beyond the scatter of the controls.

Compound in the assay: CN[C@@H]1C[C@H]2O[C@@](C)([C@@H]1OC)n1c3ccccc3c3c4c(c5c6ccccc6n2c5c31)C(=O)NC4 [staurosporine]
Kind of assay: log2 fold change of tryptic peptide abundance, ligand vs vehicle (limited proteolysis) (log2 ratio); higher = more trypsin-susceptible (destabilized). Particulars: ligand concentration: 20 uM; sample: K562 cleared lysate; digestion: 4 min, 22 C (HT-PELSA RT4min, Orbitrap Astral).

With “ATXN3 (peptide sequence: REAYFEK, peptide start residue: 285) (UniProt P54252)”, the log2 fold change turned out to be 0.55.
As for “POLG (peptide sequence: RPQHLPGHPGWYR, peptide start residue: 562) (UniProt P54098)”, the figure is -0.352; as for “ALDH5A1 (peptide sequence: ISFTGSTTTGK, peptide start residue: 280) (UniProt P51649)”, 0.27.
As to “RPS5 (peptide sequence: KKDELER, peptide start residue: 192) (UniProt P46782)”, the log2 fold change was found to be 0.192.
As for “DAP3 (peptide sequence: VRNATDAVGIVLK, peptide start residue: 233) (UniProt P51398)”, the figure is -0.367; as for “RPL14 (peptide sequence: MTDFDRFKVMK, peptide start residue: 104) (UniProt P50914)”, 0.446; as for “CDC34 (peptide sequence: WNPTQNVR, peptide start residue: 114) (UniProt P49427)”, 0.126.
As to “RGS19 (peptide sequence: AEANQHVVDEK, peptide start residue: 128) (UniProt P49795)”, the log2 fold change is -0.712.
In the case of “CRKL (peptide sequence: HGMFLVR, peptide start residue: 33) (UniProt P46109)”, the log2 fold change is 0.22.
Turning to “POLR2J (peptide sequence: VPNACLFTINKEDHTLGNIIK, peptide start residue: 27) (UniProt P52435)”, the log2 fold change is 0.243.
As for “RBM5 (peptide sequence: HDISDER, peptide start residue: 89) (UniProt P52756)”, the figure is -0.319; as for “UniProt P52746 (peptide sequence: LSSITSHVAEGCR, peptide start residue: 1038)”, 0.337; as for “NT5C2 (peptide sequence: HLDSSSNERPDISSIQR, peptide start residue: 405) (UniProt P49902)”, 0.282.
“CDK8 (peptide sequence: ELKHPNVISLQK, peptide start residue: 72) (UniProt P49336)”: the log2 fold change was -1.12.
As for “IDH3A (peptide sequence: IAEFAFEYAR, peptide start residue: 179) (UniProt P50213)”, the figure is -0.143.
“SMS (peptide sequence: NGSFANLR, peptide start residue: 55) (UniProt P52788)”: the log2 fold change was -0.197.
As to “TRAPPC10 (peptide sequence: AHSSVDWLIVIVENDAK, peptide start residue: 117) (UniProt P48553)”, the log2 fold change came out at 0.643.
“PRIM2 (peptide sequence: MEFSGRK, peptide start residue: 1) (UniProt P49643)”: the log2 fold change came to 0.409.
“YLPM1 (peptide sequence: DYQDDTLELYNREDR, peptide start residue: 1233) (UniProt P49750)”: the log2 fold change is -0.411.
With “MSH6 (peptide sequence: NLPEEYELK, peptide start residue: 989) (UniProt P52701)”, the log2 fold change is 0.215.
Consider “ARRB1 (peptide sequence: EDLDVLGLTFR, peptide start residue: 66) (UniProt P49407)”, for which the log2 fold change is -0.757.
On to “BLVRA (peptide sequence: SPLSWIEEK, peptide start residue: 211) (UniProt P53004)”, for which the log2 fold change was found to be 0.416.
Then “ALDH9A1 (peptide sequence: VSFTGSVPTGMK, peptide start residue: 228) (UniProt P49189)”, with 0.289; and “NRIP1 (peptide sequence: LQTVALSQQIR, peptide start residue: 144) (UniProt P48552)”, with 0.208.
Take “UniProt P51784 (peptide sequence: QAWSGHHR, peptide start residue: 368)”: the log2 fold change is 0.488.
As to “UniProt P49591 (peptide sequence: IKLEAERFENLR, peptide start residue: 122)”, the log2 fold change was -0.129.
“UniProt P54792 (peptide sequence: LPCFNGR, peptide start residue: 78)”: the log2 fold change was -0.113.
As for “AKR1C2 (peptide sequence: LLEMILNKPGLK, peptide start residue: 172) (UniProt P52895)”, the log2 fold change is 0.0442.
As for “ARCN1 (peptide sequence: MHAPPINMESVHMK, peptide start residue: 264) (UniProt P48444)”, the log2 fold change was found to be 0.849.
